Laboratory results taken from the supplement of paper PMC9578143, “Small-Molecule Ebselen Binds to YTHDF Proteins Interfering with the Recognition of N^6-Methyladenosine-Modified RNAs” (ACS Pharmacology & Translational Science, 2022).
The list shows a part of the results. Part of the spread comes from offsets between plates or batches.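 Hits were defined as a z-score below −3.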

Target: T1, YTHDF1 YTH domain (aa 365-554) (UniProt Q9BYJ9)
T1 sequence (whole entry): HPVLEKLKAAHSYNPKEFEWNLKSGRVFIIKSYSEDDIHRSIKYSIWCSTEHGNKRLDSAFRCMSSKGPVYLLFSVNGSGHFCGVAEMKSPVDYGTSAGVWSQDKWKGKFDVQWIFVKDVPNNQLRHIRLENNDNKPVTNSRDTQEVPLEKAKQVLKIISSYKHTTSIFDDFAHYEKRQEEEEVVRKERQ
Assay: tryptophan fluorescence intensity z-score (mean); higher = higher fluorescence, less quenching (negative = binding / quenching)
Conditions: 10 µM

Tryptophan fluorescence intensity z-score, inactive:
C=C[C@H]1CN2CC[C@H]1C[C@H]2[C@H](O)c1ccnc2ccc(OC)cc12 (plate: M 5-6) -0.159, COc1ccc([C@@H](C)C(=O)c2ccc(O)cc2O)cc1 (plate: M 15-16) 0.178, CC1=C(/C=C/C(C)=C/C=C/C(C)=C/CO)C(C)(C)CCC1 (plate: M 7-8) 0.251, C/C=C(/C(=C/C)c1ccc(O)cc1)c1ccc(O)cc1 (plate: M 1-2) 0.626, Cc1ncc([N+](=O)[O-])n1CC(C)O (configuration not stated) (plate: M 23-24) 0.11, O=C(O)c1ccccc1OP(=O)(O)O (plate: M 23-24) 0.264, COC(=O)c1c(C)cc(OC(=O)c2c(C)cc(O)c(C=O)c2O)c(C)c1O (plate: M 15-16) -0.0857, Nc1cc(N2CCCCC2)nc(N)[n+]1[O-] (plate: M 3-4) 0.114, C[N+](C)(C)CC(O)CC(=O)O (configuration not stated) (plate: M 17-18) 0.748, CC(=O)NS(=O)(=O)c1ccc(N)cc1 (plate: M 5-6) 0.147, OCc1ccccc1O[C@@H]1O[C@H](CO)[C@@H](O)[C@H](O)[C@H]1O (plate: M 7-8) 0.0838, C=CC1=C(C(=O)O)N2C(=O)[C@@H](NC(=O)/C(=N\O)c3csc(N)n3)[C@H]2SC1 (plate: M 9-10) -0.513, O=C(O[C@@H]1Cc2c(O)cc(O)cc2O[C@@H]1c1cc(O)c(=O)c2c(O)c(O)cc([C@H]3Oc4cc(O)cc(O)c4C[C@H]3OC(=O)c3cc(O)c(O)c(O)c3)c2c1)c1cc(O)c(O)c(O)c1 (plate: M 15-16) -1.38, COc1cccc2c1C(=O)c1c(O)c3c(c(O)c1C2=O)C[C@@](O)(C(C)=O)C[C@@H]3O[C@H]1C[C@H](N)[C@H](O)[C@H](C)O1 (plate: M 1-2) -0.16, Oc1ccc([C@H]2Oc3cc(O)cc(O)c3C[C@H]2O)cc1 (plate: M 15-16) 0.435, CC(=O)CC(c1ccccc1)c1c(O)c2ccccc2oc1=O (configuration not stated) (plate: M 5-6) -0.456, NS(=O)(=O)c1cc2c(cc1Cl)NC(C1CC3C=CC1C3)NS2(=O)=O (configuration not stated) (plate: M 9-10) -0.0975, O=C1NS(=O)(=O)c2ccccc21 (plate: M 7-8) 0.0378, NC(=O)NCCC[C@H](N)C(=O)O (plate: M 17-18) 0.36, O=c1oc2c(O)c(O)cc3c(=O)oc4c(O)c(O)cc1c4c23 (plate: M 19-20) 0.339, CC(=O)OCC(=O)[C@@]12OC(C)(C)O[C@@H]1C[C@H]1[C@@H]3C[C@H](F)C4=CC(=O)C=C[C@]4(C)[C@@]3(F)[C@@H](O)C[C@@]12C (plate: M 3-4) -0.00504, c1ccc2c(CC3=NCCN3)cccc2c1 (plate: M 3-4) 0.248, CCN(CC)CC(=O)Nc1c(C)cccc1C (plate: M 5-6) 0.0118, COc1cc(OC)c2c(c1Cl)O[C@@]1(C(=O)CC(=O)C[C@H]1C)C2=O (plate: M 15-16) -0.287, Cc1cc(O)c(C=O)c(O)c1C(=O)O (plate: M 17-18) -0.00516, CC[C@@H]1C(=O)OC[C@@H]1Cc1cncn1C (plate: M 13-14) 0.691, CN1C(=O)CC[C@H]1c1cccnc1 (plate: M 13-14) 0.676, COc1ccc(-c2coc3c(O)c(O)c(OC)cc3c2=O)cc1 (plate: M 21-22) 0.0368, Cc1c(NC(=O)c2cccnc2)c(=O)n(-c2ccccc2)n1C (plate: M 21-22) 0.421, O=C(/C=C/c1ccc(O)cc1)c1ccc(O)cc1O (plate: M 19-20) -0.089, CS(=O)(=O)OCCCCOS(C)(=O)=O (plate: M 1-2) 0.114, NC(=O)CCCCC1CCSS1 (configuration not stated) (plate: M 13-14) 0.0921, NS(=O)(=O)c1cc2c(cc1C(F)(F)F)NCNS2(=O)=O (plate: M 3-4) -0.146, CC(O)Cn1cnc2c1c(=O)n(C)c(=O)n2C (configuration not stated) (plate: M 23-24) 0.523, CCC1(C)OC(=O)N(C)C1=O (configuration not stated) (plate: M 13-14) 0.513, N[C@@H](Cc1c[nH]c2ccccc12)C(=O)O (plate: M 5-6) 0.549, O=C(OOC(=O)c1ccccc1)c1ccccc1 (plate: M 7-8) 0.305, COC1=CC(=O)C(C(=O)c2ccccc2)=CC1=O (plate: M 15-16) 0.275, Nc1c2ccccc2nc2ccccc12 (plate: M 5-6) 0.229, CN1CCC(=C2c3ccccc3Sc3ccccc32)CC1 (plate: M 21-22) 0.235, N[C@@H](Cc1cc(I)c(Oc2ccc(O)c(I)c2)c(I)c1)C(=O)O (plate: M 5-6) 0.164, N[C@@H](Cc1cc(I)c(Oc2ccc(O)c(I)c2)c(I)c1)C(=O)O [LIOTHYRONINE(L-isomer)SODIUM] (plate: M 7-8) 0.298, CC1CC(OC(=O)c2ccccc2O)CC(C)(C)C1 (configuration not stated) (plate: M 9-10) -0.289, O=C(CCCN1CCN(c2ccccn2)CC1)c1ccc(F)cc1 (plate: M 9-10) -0.131, C[C@H](CCC(=O)O)[C@H]1CC[C@H]2[C@@H]3[C@@H](O)C[C@@H]4C[C@H](O)CC[C@]4(C)[C@H]3CC[C@]12C (plate: M 5-6) -1.06, CC(C)c1ccc2c(c1)CCC1[C@](C)(CN)CCC[C@]21C (some centres not stated) (plate: M 19-20) 0.421, CN1CCN(C(c2ccccc2)c2ccccc2)CC1 (plate: M 1-2) 0.222, C[C@]12CC[C@@H]3c4ccc(OC(=O)c5ccccc5)cc4CC[C@H]3[C@@H]1CC[C@@H]2O (plate: M 7-8) 0.0411, O=C(O)c1ccccc1C(=O)Nc1ccc(S(=O)(=O)Nc2nccs2)cc1 (plate: M 7-8) -0.193, C[N+](C)(C)CC(=O)O (plate: M 7-8) 0.19, OCCN(CCO)c1nc(N2CCCCC2)c2nc(N(CCO)CCO)nc(N3CCCCC3)c2n1 (plate: M 3-4) -0.454, CC(=O)OCC(=O)[C@@]1(O)CCC2C3CCC4=CC(=O)C=C[C@]4(C)[C@@]3(F)[C@@H](O)C[C@@]21C (some centres not stated) (plate: M 13-14) 1.12, C[C@@H]1C[C@H]2[C@@H]3CCC4=CC(=O)C=C[C@]4(C)[C@@]3(F)[C@@H](O)C[C@]2(C)[C@@]1(O)C(=O)COP(=O)(O)O (plate: M 1-2) 0.365, C(=C\c1ccccc1)/CN1CCN(C(c2ccccc2)c2ccccc2)CC1 (plate: M 7-8) -0.474, CCOC(=O)n1ccn(C)c1=S (plate: M 23-24) 0.284, COc1cc(O)c2c(c1)C(=O)c1cc(C)cc(O)c1C2=O (plate: M 19-20) 0.196, O=C1CN(/N=C/c2ccc(-c3ccc([N+](=O)[O-])cc3)o2)C(=O)N1 (plate: M 7-8) -0.0151, C=C[C@@H](C1=CC(=O)C(OC)=C(OC)C1=O)c1ccccc1 (plate: M 15-16) -1.71, Cc1cc(NS(=O)(=O)c2ccc(N)cc2)no1 (plate: M 5-6) -0.371, CN[C@@H]1[C@@H](O)[C@@H](O[C@@H]2[C@@H](O)[C@H](O[C@H]3OC(CN)=CC[C@H]3N)[C@@H](N)C[C@H]2N)OC[C@]1(C)O (plate: M 5-6) -0.541, CC1(C)S[C@@H]2[C@H](NC(=O)[C@H](C(=O)O)c3ccsc3)C(=O)N2[C@H]1C(=O)O (plate: M 11-12) -0.061, Cc1ccccc1OCC(O)CO (configuration not stated) (plate: M 7-8) 0.141, O=C1CN(/N=C/c2ccc([N+](=O)[O-])o2)C(=O)N1 (plate: M 3-4) -0.5, c1ccc2c(c1)CN1CCCC1=N2 (plate: M 19-20) 0.536, COc1c(-c2ccccc2)oc2c(ccc3occc32)c1=O (plate: M 23-24) 0.466, Cc1c(C(=O)O)c(O)cc2c1C(=O)c1c(O)c([C@@H]3O[C@H](CO)[C@@H](O)[C@H](O)[C@H]3O)c(O)c(O)c1C2=O (plate: M 17-18) -0.663, CCN(CC)CCOC(=O)C(Cc1cccc2ccccc12)CC1CCCO1 (configuration not stated) (plate: M 9-10) 0.544, CC1(C)S[C@@H]2[C@H](NC(=O)C(C(=O)O)c3ccccc3)C(=O)N2[C@H]1C(=O)O (some centres not stated) (plate: M 1-2) 0.597, C[C@H](N)[C@H](O)c1cccc(O)c1 (plate: M 7-8) -0.174, CCN(CC)C(=S)SSC(=S)N(CC)CC (plate: M 3-4) -1.84, C=C[C@@]1(C)CC(=O)[C@]2(O)[C@@]3(C)[C@@H](O)CCC(C)(C)[C@@H]3[C@H](O)[C@H](OC(C)=O)[C@@]2(C)O1 (plate: M 9-10) -0.0305, CN(Cc1cnc2nc(N)nc(N)c2n1)c1ccc(C(=O)NC(CCC(=O)O)C(=O)O)cc1 (racemic) (plate: M 3-4) -0.835
